Test results from patent publication US20250074981A1, “COMBINATION THERAPY WITH DEXAMETHASONE AND TUMOR-SPECIFIC T CELL ENGAGING MULTI-SPECIFIC ANTIBODIES FOR TREATING CANCER” (MEMORIAL SLOAN-KETTERING CANCER CENTER, priority 2021, published 2025).
For at least one compound, name, drawing or mass did not settle the structure.

Experiments:
TNF-α, IFN-γ = experiment: T helper cell cytokine levels after GD2-EATs with dexamethasone premedication; assay type: in vivo, mice; settings: 4 hours after the first dose of GD2-EATs; dexamethasone ip 1 hour before
leukocytes in the blood = experiment: Flow cytometry of leukocytes in the blood after dexamethasone premedication; assay type: in vivo, mice
[1] = test system: tumor infiltrating myeloid cells (TIMs) and lymphocytes (TILs); experiment: Flow cytometry of TIMs and TILs after dexamethasone premedication; assay type: in vivo, mice
[2] = test system: tumor infiltrating T cells; experiment: IHC staining of tumor sections by human CD3 antibody after dexamethasone premedication; assay type: in vivo, mice; settings: HD dexamethasone, vs GD2-EATs alone
GD2(+) osteosarcoma PDX [3] = experiment: Bioluminescence imaging of Luc(+) GD2-EATs in GD2(+) osteosarcoma PDX; assay type: in vivo, mice
Experimental: T cells isolated from peripheral blood were stimulated with Dynabeads™ Human T-Activator CD3/CD28 for 24 hours. T cells were transduced with retroviral constructs containing tdTomato and click beetle red luciferase in RetroNectin-coated 6-well plates in the presence of IL-2 (100 IU/ml) and protamine sulfate ([…]). Transduced T cells were cultured for 8 days before being used in animal experiments.
Mice were anesthetized and imaged after intravenous injection of 3 mg of D-luciferin (Gold Biotechnology, St. Louis, MO) on different days post T cell injection. Images were acquired using IVIS Spectrum CT In Vivo Imaging System (Caliper Life Sciences, Waltham, MA). Bioluminescence images were overlaid with photographs, and regions of interest (ROI) were drawn based on the location and contour of tumor using Living image 2.60 (Xenogen, Alameda, CA). The total counts of photons (photon/s) were obtained. Bioluminescence signals (total flux, photon/s) before T cell injection were used as baselines.

GD2(+) osteosarcoma PDX [4] = experiment: In vivo anti-tumor effect of dexamethasone premedication with GD2-EATs in GD2(+) osteosarcoma PDX; parameters: species or system mice; settings: LD or HD dexamethasone before GD2-EATs
M37 breast cancer PDX = experiment: In vivo anti-tumor effect in M37 breast cancer PDX; parameters: species or system mice
Experimental: Increasing dosage of dexamethasone was tested as a premedication administered i.p. before the i.v. injection of HER2×CD3-BsAb plus activated human T cells in mice xenografted s.c. with M37 breast cancer PDX using the schedule detailed in FIG. 9A. The three dosages of intraperitoneal dexamethasone were 2 mg/kg (Dex 2), 8 mg/kg (Dex 8) and 32 mg/kg (Dex 32) once a week×3 weeks.

[5] = test system: IL2, IFN-gamma and TNF-alpha; experiment: In vivo serum cytokine levels, M37 breast cancer PDX mice; settings: 16 hours post treatment; differences not statistically significant
[6] = test system: Human CD45(+)CD3(+) T cells; experiment: T cell engraftment in peripheral blood, M37 breast cancer PDX mice; assay type: in vivo
[7] = test system: GD2(+) neuroblastoma PDXs; experiment: In vivo anti-tumor effect against GD2(+) neuroblastoma PDXs; settings: for anti-tumor effect of GD2-BsAb: iv BsAb+T cells or EATs

C[C@@H]1C[C@H]2[C@@H]3CCC4=CC(=O)C=C[C@]4(C)[C@@]3(F)[C@@H](O)C[C@]2(C)[C@@]1(O)C(=O)CO [dexamethasone]
IFN-γ level (TNF-α, IFN-γ): not significantly affected | TNF-α release (TNF-α, IFN-γ): decreased TNF-α release from GD2-EATs | neutrophils and monocytes in the blood (leukocytes in the blood; dexamethasone premedication): neutrophilia and profound monocytopenia | frequencies of circulating T cells (leukocytes in the blood; vs mice treated without dexamethasone premedication): significantly higher frequencies of circulating T cells | frequencies of G-MDSCs or M-MDSCs in tumors ([1]; compared to unarmed T cells or GD2-EATs alone): did not change significantly | frequencies of F4/80(+) TAMs in tumors ([1]; dexamethasone treatment (LD, ID, HD)): significantly decreased | frequency of hCD45(+) TILs ([1]; dose-dependent): increased the frequency of hCD45(+) TILs | TILs by anti-human CD3 IHC [2]: significantly more TILs | mean signal intensity on day 14 vs GD2-EATs alone (GD2(+) osteosarcoma PDX [3]; GD2-EATs plus HD dexamethasone): maintained higher | bioluminescence signal intensities of Luc(+) GD2-EATs (GD2(+) osteosarcoma PDX [3]; vs mice treated without dexamethasone): much stronger signal intensities | tumor control (GD2(+) osteosarcoma PDX [4]): significantly improved tumor control | mice with tumor escape (M37 breast cancer PDX; 32 mg/kg of dexamethasone): one of the 5 | interference with anti-tumor response of HER2×CD3-BsAb (M37 breast cancer PDX; dexamethasone 2, 8, 32 mg/kg ip once a week × 3 weeks): not interfered | serum IL2, IFN-gamma and TNF-alpha [5]: general trend of decrease | circulating T cell frequencies ([6]; after T cells injection with or without HER2-BsAb): significantly increased circulating T cell frequencies | CD4 to CD8 ratio among T cells ([6]; among treatment groups): no difference | anti-tumor effect of GD2-BsAb ([7]; HD dexamethasone 32 mg/kg/dose): enhanced anti-tumor effect of GD2-BsAb | anti-tumor effect of GD2-BsAb ([7]; ID dexamethasone 8 mg/kg/dose): enhanced anti-tumor effect of GD2-BsAb | influence on anti-tumor effect of GD2-BsAb ([7]; dexamethasone premedication, all doses): did not compromise anti-tumor effect of GD2-BsAb
